At least one structure is not confirmed: it was looked up by name or label, or the drawing left a doubt.
Columns and labels:
osteosarcoma cells [1] = test: Inhibitor library drug screening, cell viability (CellTiter-Glo); assay type: cell-based, human; details: nine osteosarcoma cell lines and two PDC, 72 hours, heatmap Fig. 1A
Protocol: The nine human osteosarcoma cell lines (MG-63 cells, NY cells, HOS cells, HuO9 cells, HuO-3N1 cells, SJSA-1 cells, NOS-1 cells, NOS-10 cells, and G-292 clone A141B1 (G-292) cells) were purchased from the American Type Culture Collection, the RIKEN BioResource Research Center, or the Japanese Collection of Research Bioresources Cell Bank (JCRC) and used at lower passage numbers. […]
Cells were seeded in triplicate in 96-well plates (Greiner) or type I collagen-coated plates (IWAKI) at a density of 2000 cells/well and cultured for at least 24 h. After 72 hours of incubation with any of the 96 compounds of the library of the inhibitors, cells were incubated with CellTiter-Glo reagent (Promega) for 2 minutes on a Titramax 100 plate shaker (Heidolph), and after 10 minutes of equilibration, cell viability assays of each osteosarcoma cell were performed by measuring luminescence using a Tristar LB941 multimode microplate reader (Berthold Technologies). The cell viability was calculated as a ratio of the DMSO control to evaluate their effects on osteosarcoma cell proliferation (n=2).

NOS-10 cells [2] = test: Cell viability (CellTiter-Glo); assay type: cell-based, human; details: IGF-1R inhibitor in combination with Mcl-1 inhibitors such as obatoclax, AZD5991, and MIK665; 72 hours; Fig. 5-1
Protocol: In this example, the drug sensitivity of MIK665, an Mcl-1 inhibitor, was evaluated in NOS-10 cells. Various concentrations (i.e., 0, 1, 3, 10, 30, 100, 300, 1000, 3000, 10000, 30000 nM) of MIK665 (TargetMol) were administered, and cell viability was measured using CellTiter-Glo assay reagent 72 hours after drug treatment. As a control, osteosarcoma cells MG-63 cells, without amplification of the copy number of MCL1, were used. Data are shown as MG-63 mean ± SD (n = 3).
(§1) Specifically, four types of osteosarcoma cells (i.e., NOS-10 cells, Sa-xeno-147 cells, G-292 cells, and Sa-xeno-184 cells) were treated with six types of BH3 mimetics (i.e., obatoclax, navitoclax, venetoclax, A-1331852, AZD5991, and MIK665), and the cell viability of the osteosarcoma cells was measured.
Meanwhile, the combined effect of AZD5991 and 3 µ(micro)M Navitoclax on cell viability of NOS-10 cells was examined. Cell viability was measured using CellTiter-Glo assay reagent 72 hours after drug treatment. Data are shown as mean ± SD (n = 3).
Specifically, the present inventors investigated the combined effects of 40 nM obatoclax with DOX (Fig. 4-4(E), Fig. 4-5(A)), with CDDP (Fig. 4-4(F), Fig. 4-5(B)), and with MTX (Fig. 4-4(G), Fig. 4-5(C)) on cell viability in NOS-10 cells and Sa-xeno-147 cells. Cell viability was measured for each cell 72 hours after each drug treatment using CellTiter-Glo assay reagent. […]

[3] = tested on: lung adenocarcinoma cell lines; test: IC50 of obatoclax, cell viability (CellTiter-Glo); assay type: cell-based; details: LC-2/ad, H2228, H226, H3122, A549 cells; 72 hours
G-292 cells = test: Cell viability, BH3 mimetic drug sensitivity; assay type: cell-based, human; details: cells with BCL2L1 amplification, Fig. 4-1
Protocol: as §1

osteosarcoma cell lines = test: IC50 of obatoclax, cell viability (CellTiter-Glo); assay type: cell-based, human; details: 72 hours; Fig. 4-3
Protocol: In this example, G-292 cells, NY cells, NOS-1 cells, NOS-10 cells, HuO9 cells, SJSA-1 cells, MG-63 cells, HuO-3N1 cells, HOS cells, Sa-xeno-147 cells, and Sa-xeno-184 cells were used as osteosarcoma cell lines, and LC-2/ad cells, H2228 cells, H226 cells, H3122 cells, and A549 cells were used as lung adenocarcinoma cell lines.
After 72 hours from treatment with obatoclax, the cell viability of each cell was measured using the CellTiter-Glo Assay reagent. The IC50 value was calculated using Prism software.

NOS-10 cells [4] = test: Mouse xenograft model, tumor volume; assay type: in vivo, SCID beige mice; details: obatoclax 5 mg/kg, OSI906 25 mg/kg, orally three times a week; MCL1-amplified xenograft; Fig. 6-2 (B)
Protocol: Using obatoclax or AZD5991 as an Mcl-1 inhibitor, the present inventors used mouse xenograft models of osteosarcoma with MCL1-amplified osteosarcoma (NOS-10 cells) and without MCL1-amplified osteosarcoma (Sa-xeno-147 cells) to determine the efficacy of the combination of obatoclax or AZD5991 with OSI906. To prevent side effects such as weight loss, the drugs were administered three times a week at relatively low concentrations (experimental schemes are shown in Figures 5A and 5D). The changes in tumor volume of NOS-10 cells and Sa-xeno-147 cells by treatment of drugs was examined as follows. NOS-10 cells or Sa-xeno-147 cells were subcutaneously inoculated into immunodeficient SCID beige mice (CB17.Cg-PrkdcscidLystbg-J/CrlCrlj, Charles River Laboratories, Inc.) (5-6×10^6 cells/mouse or 1×10^6 cells/mouse) and orally treated three times a week with vehicle (30% PEG400, 0.5% Tween80, 5% propylene glycol in water), with obatoclax (5 mg/kg), with OSI906 (25 mg/kg), or with obatoclax + OSI906 (5 mg/kg and 25 mg/kg, respectively). […] All data are shown as mean ± SD (n = 4, n = 5, or n = 6). *p < 0.05 and **p < 0.01 are determined using the Mann-Whitney U test.

osteosarcoma cells [5] = test: Cell viability after 1 µM obatoclax or navitoclax (CellTiter-Glo); assay type: cell-based, human; details: 72 hours, 11 types of osteosarcoma cells, Fig. 1B
Protocol: Among these five compounds, obatoclax, a pan-BH3 mimetic, was further investigated. Specifically, the osteosarcoma cells (the above described 11 types of osteosarcoma cells) were seeded in triplicate at a density of 2000 cells/well on 96-well plates (Greiner) or type I collagen-coated plates (IWAKI) and cultured for at least 24 hours. The osteosarcoma cells (i.e., the above described 11 types) were then treated with 1 µ(micro)M obatoclax for 72 hours, after which cell viability was measured using the CellTiter-Glo assay reagent.

NOS-10 cells [6] = test: Caspase-3/7 activity with obatoclax, OSI906 and IGF-1; assay type: cell-based, human; details: 40 nM obatoclax, addition of 40 ng/mL IGF-1; 24 hours; Fig. 5-4
[7] = tested on: IGF1R downstream pathway and apoptosis-related proteins; test: Immunoblotting after obatoclax, OSI906 and IGF treatment; assay type: cell-based, human; details: 40 nM obatoclax with 40 ng/mL IGF; 24 hours

Row | Compound | osteosarcoma cell proliferation (cell viability) (osteosarcoma cells [1]) | IC50 value (NOS-10 cells [2]) | growth inhibitory effect (NOS-10 cells [2]) | cell viability after treatment with obatoclax [3] | cell viability (G-292 cells) | mean IC50 value compared with lung adenocarcinoma cell lines (osteosarcoma cell lines) | tumor growth (NOS-10 cells [4]) | cell viability (osteosarcoma cells [5]) | obatoclax-induced apoptosis (caspase-3/7 activity) (NOS-10 cells [6]) | obatoclax-induced increase in the cleaved PARP [7]
1 | Cn1cncc1[C@@](N)(c1ccc(Cl)cc1)c1ccc2c(c1)c(-c1cccc(Cl)c1)cc(=O)n2C [tipifarnib] | extensive inhibition of osteosarcoma cell proliferation | – | – | – | – | – | – | – | – | –
2 | Nc1ncnc2c1c(-c1cccc(OCc3ccccc3)c1)cn2[C@H]1C[C@@H](CN2CCC2)C1 [AEW541] | – | significantly reduced | enhanced | – | – | – | – | – | – | –
3 | COC1=CC(c2cc3ccccc3[nH]2)=N/C1=C\c1[nH]c(C)cc1C [obatoclax] | extensive inhibition of osteosarcoma cell proliferation | – | – | highly variable | highly sensitive | lower than that in lung adenocarcinoma cell lines | little effect on tumor growth | strong growth inhibitory effect on all osteosarcoma cell lines | significantly inhibited | counteracted by IGF ligand stimulation
